{
  "sequences": {"note": "Chains of the proteins cited; added tags and fusions are not shown.", "UniProt P27695, whole entry, looked up": "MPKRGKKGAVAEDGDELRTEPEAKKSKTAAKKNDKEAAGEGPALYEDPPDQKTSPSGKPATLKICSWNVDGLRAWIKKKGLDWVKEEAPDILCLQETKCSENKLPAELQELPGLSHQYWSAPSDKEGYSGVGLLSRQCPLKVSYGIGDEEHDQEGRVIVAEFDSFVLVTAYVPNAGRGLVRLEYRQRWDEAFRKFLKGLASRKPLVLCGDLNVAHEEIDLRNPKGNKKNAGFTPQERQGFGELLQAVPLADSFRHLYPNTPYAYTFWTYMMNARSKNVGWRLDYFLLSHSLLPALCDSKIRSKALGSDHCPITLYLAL"},
  "source": "PubChem BioAssay AID2517",
  "about": "(National Center for Advancing Translational Sciences (NCATS), 2010)",
  "note": "“And” between values parts separate entries of the source, which are not always exact repeats. Identical values can stand only once. Among all 350,000 compounds or so, about 1,200 (0.34%) were called active. The inconclusive results got no clear call from the source; some entries with a clear call stand among them for comparison. Calls follow the shape of the dose curve; as a rule, active = well fitted inhibition curve with a large enough effect; inconclusive = small, poorly fitted or top-dose-only effect; inactive = no such curve, though single readings can be large or run the other way. Potencies of inconclusive entries are doubtful fits and often do not repeat. Potency is read from the fitted curve at half-maximal effect.",
  "data": [
    {"molecular_target": "DNA repair nuclease/redox regulator APEX1 (Homo sapiens) (UniProt P27695)", "test": "qHTS Assay for Inhibitors of the Human Apurinic/apyrimidinic Endonuclease 1 (APE1); also: nearly all actives have a fitted effect of over 55% in size", "conditions": "recombinant APE1, TAMRA/BHQ-2 abasic DNA cleavage fluorescence; series mostly up to 65.8 µM", "outline": "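Incision of a quenched TAMRA/BHQ-2 THF abasic-site duplex (50 nM) by 0.75 nM APE1, after 15 min compound preincubation, measured as fluorescence increase over three 60 s reads. Values normalized to buffer, DMSO and NSC13755 control wells.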", "values": [
      {"smiles": "CCCNS(=O)(=O)c1ccc(CCC(=O)NCC2CCCO2)cc1", "note": "(configuration not stated)", "Potency": "inconclusive: 39.8 µM [inhibitor, partial curve]"},
      {"smiles": "Oc1ccc(/C=N/Nc2nc(-c3cccnc3)nc3ccccc23)c(O)c1", "Potency": "inconclusive: 44.7 µM [inhibitor, single point]"},
      {"smiles": "Cc1cc(C)cc(NC(=O)COc2ccc(C(=S)N3CCOCC3)cc2)c1", "Potency": "inactive"},
      {"smiles": "CC1CCCCC12NC(=O)N(Cc1cc(=O)n3ccsc3n1)C2=O", "note": "(configuration not stated)", "Potency": "inconclusive: 22.4 µM [inhibitor, single point]"},
      {"smiles": "CCC(=O)Nc1ccc(C(=O)COC(=O)c2nc3nccc(C)n3n2)cc1", "Potency": "inconclusive: 10.6 µM [inhibitor, partial curve]"},
      {"smiles": "Cn1nnnc1SCC1=C(C(=O)O)N2C(=O)[C@@H](NC(=O)[C@H](O)c3ccccc3)[C@H]2SC1", "Potency": "inactive and inconclusive: 31.6 µM [inhibitor, partial curve]"},
      {"smiles": "COC(=O)CCC(=O)OC1(C)C(=O)C2=CN(CC3CC3)C(c3ccc(OC)cc3)=CC2=C(Br)C1=O", "note": "(configuration not stated)", "Potency": "inconclusive: 7.08 µM [inhibitor, partial curve, poor fit]"},
      {"smiles": "CCCN(Cc1ccco1)S(=O)(=O)c1ccc(OC)c(OC)c1", "Potency": "inconclusive: 8.91 µM [inhibitor, single point]"},
      {"smiles": "O=C(O)c1ccc2c3n(nc2c1)-c1ccc(Cl)cc1CO3", "Potency": "inactive"},
      {"smiles": "CCOc1ccc(N2CSC3=C(C#N)C(c4ccco4)CC(=O)N3C2)cc1", "note": "(configuration not stated)", "Potency": "active: 31.6 µM"},
      {"smiles": "COc1cccc(C2C(C#N)=C(N)OC3=C2C(=O)CC(c2ccco2)C3)c1OCc1ccc(F)cc1", "note": "(configuration not stated)", "Potency": "inconclusive: 17.8 µM [inhibitor, partial curve]"},
      {"smiles": "Cc1sc(NC(=S)NC(=O)CCc2ccccc2)c(C(N)=O)c1C", "Potency": "inconclusive: 3.98 µM [inhibitor, single point]"},
      {"smiles": "CC1=C(C#N)c2nc(N)c(C#N)c(C)c2/C1=C\\c1ccc(-c2ccccc2C(=O)O)o1", "Potency": "active: 25.1 µM"},
      {"smiles": "CN(C)S(=O)(=O)N(CC(=O)Nc1ccccc1C(F)(F)F)c1ccccc1", "Potency": "inconclusive: 28.2 µM [inhibitor, single point]"},
      {"smiles": "O=C(Nc1cccc(S(=O)(=O)N2CCCCCC2)c1)c1cc(=O)c2ccccc2o1", "Potency": "inconclusive: 31.6 µM [inhibitor, single point]"},
      {"smiles": "O=C1C2=C(S[C@@H]3O[C@H](CO)[C@@H](O)[C@H](O)[C@H]3O2)C(=O)c2ccccc21", "Potency": "inactive"},
      {"smiles": "c1ccc(CSc2nc3ccccc3[nH]2)cc1", "Potency": "inactive"},
      {"smiles": "O=C(NC1CCN(Cc2ccccc2)CC1)C(NS(=O)(=O)c1cccc2nsnc12)c1ccccc1", "note": "(configuration not stated)", "Potency": "inconclusive: 44.7 µM [inhibitor, single point]"},
      {"smiles": "O=c1[nH]c(SCc2nc3c(cnn3-c3ccccc3)c(=O)[nH]2)nc2ccccc12", "Potency": "inconclusive: 3.55 µM [inhibitor, full curve, poor fit]"},
      {"smiles": "CCOC(=O)c1cc(-c2ccco2)nc2c1c(C)nn2CCC#N", "Potency": "inactive"},
      {"smiles": "Cc1cc(NC(=O)CSc2nc3[nH]c(=O)cc(O)c3s2)ccc1Br", "Potency": "inactive"},
      {"smiles": "Cc1ccn2c(=O)nc(SCC(=O)Nc3ccc4c(c3)OCO4)nc2c1", "Potency": "inactive"},
      {"smiles": "O=C1CCC2S/C(=C/Nc3ccc(C(F)(F)F)cc3)C(=O)N12", "note": "(configuration not stated)", "Potency": "inconclusive: 56.2 µM [inhibitor, partial curve, poor fit]"},
      {"smiles": "Nc1cc(-c2nn[nH]n2)ccc1F", "Potency": "inconclusive: 3.16 µM [inhibitor, full curve]"},
      {"smiles": "Cn1nccc1C(=O)Oc1cccc(/C=N/NC(=O)c2ccccc2O)c1", "Potency": "inconclusive: 14.1 µM [inhibitor, partial curve, poor fit]"},
      {"smiles": "COc1cc(C(C#N)N2N=C(c3ccccc3)CC2c2ccccc2)ccc1O", "note": "(configuration not stated)", "Potency": "inactive"},
      {"smiles": "COc1ccccc1NS(=O)(=O)c1cc(NC(=O)CNC(=O)c2ccccc2)ccc1C", "Potency": "inconclusive: 31.6 µM [inhibitor, single point]"},
      {"smiles": "CN(C)/C=C(\\C#N)C(=O)N/N=C/c1ccccc1", "Potency": "inconclusive: 39.8 µM [inhibitor, single point]"},
      {"smiles": "CCCNC(=S)Nc1ccc(Cl)cc1C", "Potency": "inconclusive: 1 µM [inhibitor, full curve, poor fit]"},
      {"smiles": "Cc1ccc(Cl)cc1N1CCN(C(=O)CN2C(=O)c3cccc4cccc2c34)CC1", "Potency": "inconclusive: 0.0224 µM [inhibitor, full curve, poor fit]"},
      {"smiles": "C/C(=N\\NC(=O)c1cccc(S(=O)(=O)N2CCCC2)c1)c1ccco1", "Potency": "inconclusive: 15.8 µM [inhibitor, partial curve, poor fit]"},
      {"smiles": "Nc1ccc(C(=O)OCC(=O)Nc2cccc(S(=O)(=O)NC3=NCCCCC3)c2)cc1[N+](=O)[O-]", "Potency": "inconclusive: 16.8 µM [inhibitor, partial curve]"},
      {"smiles": "CCC1=NN2C(=N)/C(=C/c3ccc(OS(=O)(=O)c4ccccc4)cc3)C(=O)N=C2S1", "Potency": "inactive"},
      {"smiles": "O=C(Nc1ccc(-c2nnc(-c3ccccc3)o2)cc1)C(F)(F)F", "Potency": "inactive"},
      {"smiles": "CCOC(=O)c1[nH]c2c(c1C)C(=O)CC(c1ccco1)C2", "note": "(configuration not stated)", "Potency": "inconclusive: 15.8 µM [inhibitor, single point]"},
      {"smiles": "Cc1onc(-c2ccccc2Cl)c1C(=O)N1CCCCC1C(=O)O", "note": "(configuration not stated)", "Potency": "inconclusive: 31.6 µM [inhibitor, single point]"},
      {"smiles": "Cc1ccc(CNS(=O)(=O)c2c(C)n(C)c(=O)n(C)c2=O)cc1", "Potency": "inconclusive: 44.7 µM [inhibitor, single point]"},
      {"smiles": "COc1ccccc1-c1nnc2n1N=C(c1ccc(O)c(O)c1)CS2", "Potency": "inconclusive: 15.8 µM [inhibitor, partial curve]"},
      {"smiles": "CCOCCCn1c(SCc2nc3ccccc3s2)nc2ccccc2c1=O", "Potency": "inconclusive: 10 µM [inhibitor, partial curve]"},
      {"smiles": "CCn1cc(C(=O)Nc2ncccc2O)c(=O)c2cc(F)c(N3CCN(C(=O)c4ccco4)CC3)cc21", "Potency": "inactive"},
      {"smiles": "CN1CCN(CCCNC(=O)c2cc3c(-c4ccc(Cl)cc4)nn(C)c3s2)CC1", "Potency": "inconclusive: 10 µM [inhibitor, partial curve, poor fit]"},
      {"smiles": "Nn1cc(-c2ccccc2)nc1SCC(=O)NCC(F)(F)F", "Potency": "inconclusive: 0.0126 µM [inhibitor, full curve, poor fit]"},
      {"smiles": "Cc1nc(-c2ccc(NS(=O)(=O)c3ccccc3)cc2)cs1", "Potency": "inconclusive: 39.8 µM [inhibitor, single point]"},
      {"smiles": "CCc1cc(=O)oc2cc(C)cc(OCC(=O)NC3CCN(Cc4ccccc4)CC3)c12", "Potency": "inconclusive: 8.44 µM [inhibitor, single point]"},
      {"smiles": "COc1ccccc1CNc1nc(-c2cccc(C#N)c2)nc2ccccc12", "Potency": "inconclusive: 44.7 µM [inhibitor, single point]"},
      {"smiles": "Cc1ccc2nc3sc(C(=O)Nc4ccc(F)cc4)cc3cc2c1", "Potency": "inconclusive: 4.74 µM [inhibitor, full curve]"},
      {"smiles": "O=C(NCc1cccnc1)c1ccc2c(=O)n(CCCN3CCCC3=O)c(=S)[nH]c2c1", "Potency": "inconclusive: 0.0045 µM [inhibitor, full curve, poor fit]"},
      {"smiles": "CCCC1CC(C)(c2csc(Nc3ccc(OCC)cc3)n2)OC1=O", "note": "(configuration not stated)", "Potency": "inconclusive: 35.5 µM [inhibitor, single point]"},
      {"smiles": "COc1cc(/C=C2\\C(=N)N3N=C(S(C)(=O)=O)SC3=NC2=O)cc(OC)c1OCCOc1cccc(C)c1", "Potency": "inactive"},
      {"smiles": "CC(C)(C)CC(=O)Nc1ccccc1N1CCN(c2ccccc2)CC1", "Potency": "inconclusive: 0.178 µM [inhibitor, full curve]"},
      {"smiles": "C/C(Cc1ccccc1)=N\\NC(=O)CNC(=O)c1ccc(Cl)cc1Cl", "Potency": "inconclusive: 7.94 µM [inhibitor, single point]"},
      {"smiles": "O=C1NN(c2ccccc2)C(=O)/C1=C\\c1ccccc1", "Potency": "inactive"},
      {"smiles": "CC(C)NC(=O)CSc1nncn1-c1ccccc1", "Potency": "inconclusive: 1.78 µM [inhibitor, full curve]"},
      {"smiles": "CN(Cc1ccccc1)S(=O)(=O)c1ccc2[nH]cc(C(=O)NCC3CCCO3)c(=O)c2c1", "note": "(configuration not stated)", "Potency": "inconclusive: 44.7 µM [inhibitor, single point]"},
      {"smiles": "O=C(NCCCN1CCOCC1)c1cnccn1", "Potency": "inactive"},
      {"smiles": "COc1cccc(NC(=O)C2CCN(Cc3cnn(-c4ccccc4)c3-n3cccc3)CC2)c1", "Potency": "inconclusive: 25.1 µM [inhibitor, single point]"},
      {"smiles": "O=C(CCCSc1nc2ccccc2[nH]1)NC1CCCCC1", "Potency": "inactive"},
      {"smiles": "O=C(O)c1ccc(N=Nc2c(O)[nH]c3ccc(Br)cc23)cc1", "Potency": "inconclusive: 21.2 µM [inhibitor, single point]"},
      {"smiles": "COc1ccccc1CNc1ccc(N2CCCCC2)cc1", "Potency": "inactive"},
      {"smiles": "COc1ccc(C(NC(C)=O)c2cc(Cl)c3cccnc3c2O)cc1", "note": "(configuration not stated)", "Potency": "inactive"},
      {"smiles": "CCOC(=O)[C@@H]1C(c2c(OC)cc(OC)cc2OC)=NO[C@@H]1C(=O)OCC", "Potency": "inconclusive: 44.7 µM [inhibitor, single point]"},
      {"smiles": "COc1cc(/C=C2\\SC(=Nc3ccccc3OC)NC2=O)ccc1O", "Potency": "inactive"},
      {"smiles": "O=C(O)c1ccc(-n2c(=O)c3ccccc3c3ccccc3c2=O)cc1", "Potency": "inconclusive: 31.6 µM [inhibitor, single point]"},
      {"smiles": "Nc1scc2c(C(=O)N/N=C/c3ccc(Cl)cc3)nn(-c3ccccc3)c(=O)c12", "Potency": "inconclusive: 25.1 µM [inhibitor, single point]"},
      {"smiles": "Cn1c(=NC(=O)c2ccccc2[N+](=O)[O-])sc2cc(S(C)(=O)=O)ccc21", "Potency": "inactive"},
      {"smiles": "CCOc1cc(C(=O)Nc2cccc3ncccc23)cc(OCC)c1OCC", "Potency": "inconclusive: 5.62 µM [inhibitor, single point]"},
      {"smiles": "CC(=O)Nc1ccc(NC(=O)CSc2nc(=O)n3cccc(C)c3n2)cc1", "Potency": "inconclusive: 23.8 µM [inhibitor, single point]"}
    ]}
  ]
}
